# Test results taken from PubChem BioAssay AID504648 (National Center for Advancing Translational Sciences (NCATS), 2011).
# About 610 (0.16%) of roughly 390,000 compounds were called active. The inconclusive results got no clear call from the source; some entries with a clear call stand among them for comparison. The call rests on the fitted dose curve; in most records, active means well fitted inhibition curve with a large enough effect; inconclusive means small, poorly fitted or top-dose-only effect, or effect the other way, or another doubt; inactive means no such curve, though single readings can be large or run the other way. Potencies of inconclusive entries are doubtful fits and often do not repeat.
# Test: Nrf2 qHTS screen for inhibitors: counterscreen for cytotoxicity
# Settings: A549 ARE-Fluc cells, CellTiter-Fluor viability, 18-24 h; series mostly up to 46 µM
# Outline: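 A549 ARE_Fluc cells in 5% FBS OPTI-MEM were exposed to compounds in concentration-response for 18-24 h at 37 deg C. Viability was read by CellTiter-Fluor fluorescence (Ex 405/Em 525) after 30 min, before the luciferase read.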
# Potency means the concentration at half of the fitted maximal effect.
row,SMILES,Potency
1,O=C(O)CCc1ccc(-c2ccc(Br)cc2)n1-c1cccc(O)c1,"inconclusive: 29.1 µM [activator, single point]"
2,CCOC(=O)C(=O)NCc1ccc(/C=C2/N=C(C)C(C(=O)OCC)=C2O)o1,"inconclusive: 18.4 µM [falling, partial curve, poor fit]"
3,Cc1cc(NC(=O)CSc2nc(CC(C)(C)C)nc3c2c(=O)n(C)c(=O)n3C)no1,"inconclusive: 29.1 µM [falling, partial curve, poor fit]"
4,CCCCOP(=O)(OCCCC)C1(NS(=O)(=O)c2ccccc2)C=CC(=O)c2ccccc21 (stereo unspecified),"inconclusive: 23.1 µM [falling, partial curve, poor fit]"
5,Brc1ccc2c(c1)C(c1cccs1)=NNC(c1cccnc1)=N2,"inconclusive: 0.58 µM [activator, single point]"
6,COc1ccc(C(=O)Nc2ccc3c(c2)Cc2ccccc2-3)cc1,"inconclusive: 32.6 µM [falling, partial curve, poor fit]"
7,C#CCOCCOCCOCCNc1nc(N2CCN(C(=O)CCCCCCCCCCNC(=O)[C@H]([C@@H](C)CC)n3cc(CCCCCN)nn3)CC2)nc(N2CCN(C(=O)CCCCCCCCCCNC(=O)[C@H](CO)n3cc(CCCCCN)nn3)CC2)n1,"inconclusive: 29.1 µM [falling, partial curve, poor fit]"
8,O=C(Nc1nnc(-c2ccc3c(c2)CCCC3)o1)c1ccccc1,"inconclusive: 16.4 µM [falling, single point]"
9,COc1ccc(N=C2C(=Nc3ccc(OC)cc3)N(c3ccc(OC)cc3)C(=S)N2c2ccccc2)cc1,inactive
10,COc1ccccc1CNC(=O)CSCc1nc(-c2ccc(OC)c(OC)c2)oc1C,inactive
11,COc1ccc(NC(=O)C(=O)NCC2CCCN2S(=O)(=O)c2cccs2)cc1 (stereo unspecified),"inconclusive: 6.51 µM [falling, partial curve, poor fit]"
12,CCOc1ccc(NC(=O)c2sc3nc4c(cc3c2N)CN(Cc2ccccc2)CC4)cc1,inactive
13,CCN(C[C@H]1N[C@@](Cc2ccccc2)(C(=O)OC)[C@H]2C(=O)N(Cc3ccccc3)C(=O)[C@@H]12)C(=O)c1ccc(F)cc1,"inconclusive: 29.1 µM [falling, single point]"
14,CCOc1ccccc1N(C)C(=O)c1cc2c(=O)n(CC)c3ccccc3c2s1,"inconclusive: 6.51 µM [falling, single point]"
15,CCc1nn2c(N)c(/C=C3\C=Nc4ccccc43)c(=O)nc2s1,"inconclusive: 29.1 µM [falling, partial curve, poor fit]"
16,CN(Cc1ccsc1)C(=O)CCc1nnc(CCCc2ccccc2)o1,"inconclusive: 3.66 µM [activator, single point]"
17,Cn1c(CSCc2ccc(F)cc2)nnc1SCC(=O)Nc1nccs1,"inconclusive: 32.6 µM [falling, partial curve, poor fit]"
18,CC(=O)c1ccc(N2CCN(c3nc4ccccc4c4nc(-c5cccc(C)c5)nn34)CC2)cc1,inactive
19,CC(C)(C)c1ccc(CSc2nnc(-c3ccccn3)n2Cc2ccco2)cc1,"inconclusive: 20.6 µM [falling, partial curve, poor fit]"
20,CCOC(=O)C1=C(C)N=c2s/c(=C\c3ccc(OCC(=O)O)cc3)c(=O)n2C1c1ccc(OC(C)C)cc1 (stereo unspecified),"inconclusive: 20.6 µM [falling, single point]"
21,CCOC(=O)c1cnc2ccccc2c1Nc1cccc(OC)c1,inactive

# Laid out differently: entries from further up.
row | SMILES | Potency
3 | Cc1cc(NC(=O)CSc2nc(CC(C)(C)C)nc3c2c(=O)n(C)c(=O)n3C)no1 | inconclusive: 29.1 µM [falling, partial curve, poor fit]
4 | CCCCOP(=O)(OCCCC)C1(NS(=O)(=O)c2ccccc2)C=CC(=O)c2ccccc21 (stereo unspecified) | inconclusive: 23.1 µM [falling, partial curve, poor fit]
5 | Brc1ccc2c(c1)C(c1cccs1)=NNC(c1cccnc1)=N2 | inconclusive: 0.58 µM [activator, single point]
6 | COc1ccc(C(=O)Nc2ccc3c(c2)Cc2ccccc2-3)cc1 | inconclusive: 32.6 µM [falling, partial curve, poor fit]
7 | C#CCOCCOCCOCCNc1nc(N2CCN(C(=O)CCCCCCCCCCNC(=O)[C@H]([C@@H](C)CC)n3cc(CCCCCN)nn3)CC2)nc(N2CCN(C(=O)CCCCCCCCCCNC(=O)[C@H](CO)n3cc(CCCCCN)nn3)CC2)n1 | inconclusive: 29.1 µM [falling, partial curve, poor fit]
8 | O=C(Nc1nnc(-c2ccc3c(c2)CCCC3)o1)c1ccccc1 | inconclusive: 16.4 µM [falling, single point]
9 | COc1ccc(N=C2C(=Nc3ccc(OC)cc3)N(c3ccc(OC)cc3)C(=S)N2c2ccccc2)cc1 | inactive
10 | COc1ccccc1CNC(=O)CSCc1nc(-c2ccc(OC)c(OC)c2)oc1C | inactive
11 | COc1ccc(NC(=O)C(=O)NCC2CCCN2S(=O)(=O)c2cccs2)cc1 (stereo unspecified) | inconclusive: 6.51 µM [falling, partial curve, poor fit]
12 | CCOc1ccc(NC(=O)c2sc3nc4c(cc3c2N)CN(Cc2ccccc2)CC4)cc1 | inactive
13 | CCN(C[C@H]1N[C@@](Cc2ccccc2)(C(=O)OC)[C@H]2C(=O)N(Cc3ccccc3)C(=O)[C@@H]12)C(=O)c1ccc(F)cc1 | inconclusive: 29.1 µM [falling, single point]
14 | CCOc1ccccc1N(C)C(=O)c1cc2c(=O)n(CC)c3ccccc3c2s1 | inconclusive: 6.51 µM [falling, single point]
15 | CCc1nn2c(N)c(/C=C3\C=Nc4ccccc43)c(=O)nc2s1 | inconclusive: 29.1 µM [falling, partial curve, poor fit]
16 | CN(Cc1ccsc1)C(=O)CCc1nnc(CCCc2ccccc2)o1 | inconclusive: 3.66 µM [activator, single point]
17 | Cn1c(CSCc2ccc(F)cc2)nnc1SCC(=O)Nc1nccs1 | inconclusive: 32.6 µM [falling, partial curve, poor fit]
18 | CC(=O)c1ccc(N2CCN(c3nc4ccccc4c4nc(-c5cccc(C)c5)nn34)CC2)cc1 | inactive

# The list continues.

row,SMILES,Potency
1,NS(=O)(=O)c1ccc(CCNC(=O)c2ccc(Cl)c(S(=O)(=O)N3CCCCCC3)c2)cc1,"inconclusive: 23.1 µM [falling, partial curve, poor fit]"
2,O=C(COc1ccc(F)cc1)NCCc1nc2ccccc2[nH]1,inactive
3,CCOC(=O)c1cc(-c2ccccc2)n(CCC(=O)Nc2nc3c(C)cccc3s2)c1C,inactive
4,N#C/C(=C/c1ccc(-c2ccc([N+](=O)[O-])cc2)o1)C(=O)Nc1nc(-c2cccs2)cs1,"inconclusive: 29.1 µM [falling, single point]"
5,Cc1cccc(-n2c(=O)c(C#N)cc3c(=O)n4ccccc4nc32)c1,"inconclusive: 23.1 µM [activator, single point]"
6,CCN(CC)CCn1c(=N)n(CCOc2ccccc2)c2ccccc21,"inconclusive: 7.08 µM [falling, partial curve, poor fit]"
7,COCCCNC(=O)c1ccc(Cn2c(=O)c3ccccc3n(Cc3ccccc3C#N)c2=O)cc1,"inconclusive: 18.4 µM [falling, partial curve, poor fit]"
8,Cc1cc(NC(=O)Cn2nc(-c3ccccc3F)ccc2=O)ccc1-n1cnnn1,inactive
9,CCN1CCN(c2cc(-c3ccccc3)nc3cc(-c4cccc(F)c4)nn23)CC1,"inconclusive: 25.9 µM [falling, partial curve, poor fit]"
10,COc1cccc(C2C(C#N)=C(NC(=O)NCc3ccccc3)Oc3ccc4ccccc4c32)c1 (stereo unspecified),"inconclusive: 29.1 µM [falling, single point]"
11,Cc1cc(-c2ccccc2)nc(N/N=C/c2ccc(O)cc2)n1,inactive
12,Cc1ccc(S(=O)(=O)Cc2ccc(C(=O)NCc3ccc4c(c3)OCO4)o2)cc1,"inconclusive: 6.51 µM [activator, single point]"
13,Cn1ncc2c(Nc3ccc(-c4ccccc4)cc3)ncnc21,"inconclusive: 1.16 µM [falling, partial curve, poor fit]"
14,Cc1ccc(N(CC(=O)N2CCc3ccccc32)S(=O)(=O)c2cccs2)cc1,"inconclusive: 18.4 µM [activator, partial curve, poor fit]"
15,Cc1ccc(OCc2cc(C(=O)NCc3cc(F)ccc3C)no2)cn1,"inconclusive: 18.4 µM [activator, partial curve, poor fit]"
16,CCOc1ccccc1CNC(=O)CCn1ccc2cc(S(=O)(=O)N3CCCCC3)ccc21,"inconclusive: 18.4 µM [falling, partial curve, poor fit]"
17,Cc1cc(-c2cccs2)c2c(n1)sc1c(=O)[nH]c(=O)[nH]c12,"inconclusive: 23.1 µM [falling, partial curve, poor fit]"
18,NS(=O)(=O)c1ccc(N/N=C/c2cn(-c3ccccc3)nc2-c2ccccc2)c([N+](=O)[O-])c1,active: 20.6 µM
19,O=[N+]([O-])c1cc(-c2nnc(Nc3ccc(O)cc3)c3ccccc23)ccc1N1CCOCC1,inactive
20,C[n+]1ccc(/C=C/c2ccc(Br)cc2)cc1,"inconclusive: 8.2 µM [falling, partial curve]"
21,O=C(NC(NC(=S)Nc1ccc(Cl)c(Cl)c1)C(Cl)(Cl)Cl)c1ccco1 (stereo unspecified),"inconclusive: 20.6 µM [falling, single point]"

row,SMILES,Potency
1,Cc1ccc(NS(=O)(=O)c2ccc(C(=O)N3CCN(c4ncccn4)CC3)cc2)cc1,"inconclusive: 29.1 µM [falling, single point]"
2,COc1ccc(N2CCc3c(C)nc4c(OC)cc(OC)cc4c32)cc1,"inconclusive: 29.1 µM [falling, single point]"
3,Cc1ccc(Cl)cc1N1CCN(C(=O)CCCCCn2c(=O)[nH]c3ccccc3c2=O)CC1,"inconclusive: 23.1 µM [falling, partial curve, poor fit]"
4,Cc1cc(C)c2c(=O)cc(C(=O)Nc3ccc(S(=O)(=O)Nc4onc(C)c4C)cc3)oc2c1,inactive
5,O=C(/C=C/c1ccccc1)N1CCN(c2ccc([N+](=O)[O-])c(N3CCOCC3)c2)CC1,"inconclusive: 23.1 µM [falling, partial curve, poor fit]"
6,O=C1C2CC=CCC2C(=O)N1c1cccc(OS(=O)(=O)c2ccc3ccccc3c2)c1 (stereo unspecified),inactive
7,Cc1ccc(-n2c(C)cc(C(=O)COC(=O)c3c(C)noc3C)c2C)cc1,"inconclusive: 25.9 µM [falling, single point]"
8,O=C(Nc1cccc2c1[nH]c1ccccc12)C(F)(F)F,"inconclusive: 32.6 µM [falling, partial curve, poor fit]"
9,CSc1ccccc1NC(=O)CN(C)CC(=O)c1[nH]c(C)c(C(C)=O)c1C,inactive
10,CCOC(=O)/C(=C\c1ccc(Cl)cc1)c1nc2sc(C)c(C)c2c(=O)[nH]1,"inconclusive: 29.1 µM [falling, single point]"
11,CC(C)(C)C(=O)Nc1ccc(Sc2ccc([N+](=O)[O-])cc2)cc1,inactive
12,NNC(=O)c1ncoc1-c1ccc(Cl)cc1,"inconclusive: 23.1 µM [activator, single point]"
13,COc1ccc(O)c(/C=N/Nc2nc(Nc3ccccc3)nc(-n3nc(C)cc3C)n2)c1,"inconclusive: 20.6 µM [falling, single point]"
14,CCC1=Nc2cc(C(=O)NCCCOC(C)C)ccc2Sc2ccccc21,"inconclusive: 9.2 µM [falling, single point]"
15,CN(C(=O)c1ccc(COc2ccccc2Br)o1)c1ccccc1,"inconclusive: 23.1 µM [activator, partial curve, poor fit]"
16,Cn1c(=O)c2[nH]c(N=Nc3ccc(N)cc3N)nc2n(C)c1=O,"inconclusive: 29.1 µM [falling, partial curve, poor fit]"
17,CN(Cc1ccccc1)CC(O)COc1ccc(CNCCCOc2cccnc2)cc1 (stereo unspecified),"inconclusive: 7.31 µM [falling, partial curve]"
18,Cc1ccc(S(=O)(=O)N2CCN(c3nc(-c4cccs4)nc4cccnc34)CC2)cc1,inactive
19,O=C(CN1CCCCCC1)Nc1cccc(NC(=O)CN2CCCCCC2)c1,"inconclusive: 10.3 µM [falling, partial curve]"
